In PubChem BioAssay AID248 (DTP/NCI, 2004) one finds survivor count and T/C data, which are given here for 28 compounds.

In the assay the test system is L1210 leukemia ip in BDF1 mice, survival T/C. In words: NCI In Vivo Anticancer Drug Screen. Data for tumor model L1210 Leukemia (intraperitoneal) in B6D2F1 (BDF1) mice. The note with it: T/C endpoint: mean survival time, higher T/C = longer survival.
Where [1] appears, read: dose: 400.0 mg/kg/injection, schedule: Q01DX001 (ip), vehicle: saline with Tween-80.
Setting [2] is: dose: 200.0 mg/kg/injection, schedule: Q04DX003 (ip), vehicle: saline with Tween-80.
Setting [3] is: dose: 400.0 mg/kg/injection, schedule: Q04DX003 (ip), vehicle: saline with Tween-80.
The mark [4] stands for this setting: dose: 200.0 mg/kg/injection, schedule: Q01DX005 (ip), vehicle: water.
Where [5] appears, read: dose: 400.0 mg/kg/injection, schedule: Q01DX005 (ip), vehicle: water.
Setting [6] is: dose: 400.0 mg/kg/injection, schedule: Q01DX009 (ip), vehicle: saline with Tween-80.
Setting [7] is: dose: 100.0 mg/kg/injection, schedule: Q01DX001 (ip), vehicle: saline.
Where [8] appears, read: dose: 400.0 mg/kg/injection, schedule: Q01DX001 (ip), vehicle: saline.

The list shows only some results of the screen, not a fair sample: it gathers tests that were run many times, whatever their T/C, doses with no T/C, and many T/C values between a quarter and a half above the control. Further doses and runs are listed elsewhere. T/C is the treated group as % of the vehicle group. Some doses have a count of surviving animals in place of a T/C: the source holds a T/C of zero for them, seemingly a mark for toxic or unscored doses. Some doses without a T/C left all or most animals alive at the check, yet need not have been tolerated: survival well below the control is almost never listed, so the zero probably covers shortened survival too. Counts of survivors are from the toxicity check (mostly the fifth day) where no day follows; animals may have died later. Schedule codes are those of the source, read here as Q, the interval in days (D) or hours (H), X, the number of doses. Some schedules carry Z or #; the key to these is not given. Where survival is the endpoint, the PubChem record calls one and a half times the control and up active, and a quarter to a half above the control has no call in these data; cut-offs in other NCI protocols can differ. Some entries hold several experiments; the values are given in rising order.

As for `CCOC(OCC)C(=O)C(C#N)c1ccc(C#N)cc1` (stereo not given), the survivor count (dose: 25.0 mg/kg/injection, schedule: Q01DX009 (ip), vehicle: DMSO) is on record as 5 of 6; the survivor count (dose: 50.0 mg/kg/injection, schedule: Q01DX009 (ip), vehicle: DMSO) is 0 of 6; the survivor count (dose: 100.0 mg/kg/injection, schedule: Q01DX009 (ip), vehicle: DMSO) is listed as 0 of 6; the survivor count (dose: 200.0 mg/kg/injection, schedule: Q01DX009 (ip), vehicle: DMSO) is 0 of 6; the survivor count (dose: 400.0 mg/kg/injection, schedule: Q01DX009 (ip), vehicle: DMSO) is listed as 0 of 6.
For the compound `O=C(O)CCCc1nccc2ccccc12`, the survivor count (dose: 300.0 mg/kg/injection, schedule: Q01DX001 (ip), vehicle: saline) is 2 of 6.
In the case of `CC1CN=C(c2cccc(NC(=O)NCCCCNC(=O)Nc3cccc(C4=NCC(C)N4)c3)c2)N1` (stereo not given), the survivor count by setting is: (dose: 13.0 mg/kg/injection, schedule: Q01DX Z (ip), vehicle: carboxymethylcellulose (CMC)) 6 of 6; (dose: 26.0 mg/kg/injection, schedule: Q01DX Z (ip), vehicle: carboxymethylcellulose (CMC)) 6 of 6; (dose: 52.0 mg/kg/injection, schedule: Q01DX Z (ip), vehicle: carboxymethylcellulose (CMC)) 0 of 6.
For the compound `Cc1ccc(S(=O)(=O)OCC(O)C(OC(=O)c2ccccc2)C(OC(=O)c2ccccc2)C(CO)OC(=O)c2ccccc2)cc1` (stereo not given), the survivor count (dose: 200.0 mg/kg/injection, schedule: Q01DX001 (ip), vehicle: saline with Tween-80) is recorded as 3 of 3 and the survivor count under setting [1] is recorded as 3 of 3.
As to `Nc1c(C(=O)O)ccc2c1C(=O)c1ccccc1C2=O`, the survivor count (dose: 400.0 mg/kg/injection, schedule: Q04DX003 (ip), vehicle: gum acacia) is listed as 0 of 6.
`c1ccc(-n2nc3c(c2-c2ccc(OCCN4CCCC4)cc2)CCCc2ccccc2-3)cc1`: the survivor count is 4 of 6 under setting [2] and 0 of 6 under setting [3].
Turning to `CCNC(=NC)c1ccc(NC(=O)c2ccc(C(=O)Nc3ccc(C(=NC)NCC)cc3)cc2)cc1`, the T/C (dose: 4.4 mg/kg/injection, schedule: Q01DX Z (ip), vehicle: carboxymethylcellulose (CMC)) is 136 % of control.
For the compound `CN(C)NC(=O)C(c1ccccc1)c1ccccc1`, the survivor count under setting [2] was 3 of 6 and the survivor count under setting [3] is given as 1 of 6.
In the case of `CC(C)(O)CCNc1ncnc2c1ncn2C1OC(CO)C(O)C1O` (stereo not given), under setting [4], the T/C is 128 % of control and the survivor count is listed as 2 of 6. In addition, under setting [5], the T/C is 138 % of control and the survivor count is listed as 3 of 6.
For the compound `CC(OC(=O)CF)C(C)OC(=O)CF` (stereo not given), the survivor count runs as follows: (dose: 5.0 mg/kg/injection, schedule: Q01DX001 (ip), vehicle: carboxymethylcellulose (CMC)) 0 of 4; (dose: 10.0 mg/kg/injection, schedule: Q01DX001 (ip), vehicle: carboxymethylcellulose (CMC)) 1 of 4; (dose: 20.0 mg/kg/injection, schedule: Q01DX001 (ip), vehicle: carboxymethylcellulose (CMC)) 0 of 4; (dose: 40.0 mg/kg/injection, schedule: Q01DX001 (ip), vehicle: carboxymethylcellulose (CMC)) 0 of 4; (dose: 50.0 mg/kg/injection, schedule: Q01DX001 (sc), vehicle: carboxymethylcellulose (CMC)) 0 of 4; (dose: 80.0 mg/kg/injection, schedule: Q01DX001 (ip), vehicle: carboxymethylcellulose (CMC)) 0 of 4. Moreover, the survivor count is, setting by setting: (dose: 100.0 mg/kg/injection, schedule: Q01DX001 (sc), vehicle: carboxymethylcellulose (CMC)) 0 of 4; (dose: 200.0 mg/kg/injection, schedule: Q01DX001 (sc), vehicle: carboxymethylcellulose (CMC)) 0 of 4; (dose: 400.0 mg/kg/injection, schedule: Q01DX001 (sc), vehicle: carboxymethylcellulose (CMC)) 0 of 4.
Consider `CCc1cc(S(=O)(=O)O)c(CC)c(CC)c1CC`, for which the survivor count runs as follows: (dose: 200.0 mg/kg/injection, schedule: Q01DX009 (ip), vehicle: saline with Tween-80) 1 of 6; under setting [6], 0 of 6.
For the compound `O=C(CCN1CCCCC1)c1ccc([N+](=O)[O-])cc1`, the survivor count by setting is: under setting [7], 0 of 4; under setting [8], 0 of 4.
On to `C=C=C[P+](c1ccccc1)(c1ccccc1)c1ccccc1`, for which the survivor count runs as follows: (dose: 80.0 mg/kg/injection, schedule: Q01DX001 (ip), vehicle: saline) 0 of 6; under setting [7], 0 of 4; (dose: 200.0 mg/kg/injection, schedule: Q01DX001 (ip), vehicle: saline) 0 of 4; under setting [8], 0 of 4.
On to `C/C(=C/C1CC(=O)OC1=O)CC(C)(C)C` (stereo not given), for which, for the setting “dose: 500.0 mg/kg/injection, schedule: Q01DX Z (ip), vehicle: methylcellulose (MC)”, the survivor count is on record as 3 of 6.
Consider `O=C(Cn1cc(F)c(=O)[nH]c1=O)N1CCC2(CC1)SSC1(CCN(C(=O)Cn3cc(F)c(=O)[nH]c3=O)CC1)S2`, for which the survivor count (dose: 400.0 mg/kg/injection, schedule: Q01DX009 (ip), vehicle: saline) is recorded as 1 of 6.
For the compound `COC(=O)c1nc(-c2ccc3c(n2)C(=O)C(N)=C(OC)C3=O)c(N)c(-c2ccc(OC)c(OC)c2O)c1C`, the survivor count by setting is: (dose: 4.0 mg/kg/injection, schedule: Q01DX001 (ip), vehicle: water) 3 of 6; (dose: 4.0 mg/kg/injection, schedule: Q01DX015 (ip), vehicle: water) 4 of 6; (dose: 8.0 mg/kg/injection, schedule: Q01DX001 (ip), vehicle: water) 0 of 6.
Regarding `CCOC(=O)CNC(=O)Oc1cccc2cccnc12`, the survivor count under setting [6] is 3 of 6.
Consider `O=C1CCC2C1CC1CC3C(=O)CCC3C12` (stereo not given), for which the survivor count by setting is: (dose: 200.0 mg/kg/injection, schedule: Q04DX002 (ip), vehicle: saline with Tween-80) 2 of 3; (dose: 400.0 mg/kg/injection, schedule: Q04DX002 (ip), vehicle: saline with Tween-80) 0 of 3.
Consider `CC(C)(C)OC1C2C=CC1C1C2C2(Cl)C(Cl)=C(Cl)C1(Cl)C21OCCO1` (stereo not given), for which, under “dose: 200.0 mg/kg/injection, schedule: Q04DX002 (ip), vehicle: Klucel (hydroxypropylcellulose) (HPC)”, the T/C is 133 % of control.
`c1ccc2c(c1)cnn1cnnc21`: for the setting “dose: 300.0 mg/kg/injection, schedule: Q01DX001 (ip), vehicle: carboxymethylcellulose (CMC)”, the survivor count is 0 of 6.
`CN=C(N/N=C/c1ccccc1)N(C)C`: the survivor count by setting is: (dose: 100.0 mg/kg/injection, schedule: Q04DX003 (ip), vehicle: Klucel (hydroxypropylcellulose) (HPC)) 3 of 6; (dose: 175.0 mg/kg/injection, schedule: Q04DX003 (ip), vehicle: Klucel (hydroxypropylcellulose) (HPC)) 0 of 6; (dose: 350.0 mg/kg/injection, schedule: Q04DX003 (ip), vehicle: Klucel (hydroxypropylcellulose) (HPC)) 0 of 6.
Take `CC1(C)OC2C(CNCCO)OC(OCc3ccccc3)C2O1` (stereo not given): under “dose: 400.0 mg/kg/injection, schedule: Q04DX003 (ip), vehicle: saline”, the survivor count is recorded as 0 of 6.
In the case of `CN(C)/N=N/c1ccn[nH]1`, the survivor count was 3 of 3 (dose: 100.0 mg/kg/injection, schedule: Q01DX005 (ip), vehicle: saline) and 0 of 3 (dose: 200.0 mg/kg/injection, schedule: Q01DX005 (ip), vehicle: saline).
Regarding `O=C(COc1cccc(Cl)c1)Nc1cc[n+](Cc2ccc(S(=O)(=O)F)cc2)cc1`, the survivor count is recorded as 2 of 6 under setting [2] and 0 of 6 under setting [3].
As for `CCCCCCNP(=O)(OCC)OCC`, the survivor count (dose: 400.0 mg/kg/injection, schedule: Q01DX001 (ip), vehicle: carboxymethylcellulose (CMC)) is on record as 2 of 4.
Turning to `COC1C(O)C(CO)OC1n1cnc2c(=S)nc[nH]c21` (stereo not given), where the note is “dose: 200.0 mg/kg/injection, schedule: Q01DX001 (ip), vehicle: carboxymethylcellulose (CMC)”, the T/C is 129 % of control.
With `CN1CCN=C1c1ccc(NC(=O)c2cccc(C(=O)Nc3ccc(C4=NCCN4C)cc3)c2)cc1`, the T/C (dose: 15.0 mg/kg/injection, schedule: Q01DX Z (ip), vehicle: saline) is 126 and 135 % of control.
For the compound `CN(CCC(=O)c1ccccc1)CCC(=O)c1ccccc1`, the survivor count under setting [1] is reported as 0 of 6.
